Measured values taken from patent US20220145323.
Construct, isoform or probe ends are uncertain for at least one entry. For part of these data: Negatives hold for the conditions tested. Tags and fusion partners may be left off the protein sequences shown. For part of these data: A weaker result is weaker than the reference pair of the same experiment.

Columns and labels:
[1] = molecular target: T1, TnpA (IS608 transposase) (UniProt Q933Z0); test: enzyme reaction in vitro; settings: purified recombinant protein, label: 5'-32P
T1 sequence (looked up, limits assumed): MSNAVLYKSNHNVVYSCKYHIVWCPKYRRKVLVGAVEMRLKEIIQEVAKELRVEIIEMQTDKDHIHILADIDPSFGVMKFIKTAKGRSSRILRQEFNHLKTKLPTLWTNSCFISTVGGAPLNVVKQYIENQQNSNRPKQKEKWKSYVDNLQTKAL

[2] = molecular target: T1, TnpA (IS608 transposase); test: structure; settings: TnpA/LE29/T6' ternary structure; purified recombinant protein
[3] = no integration product even with 10-fold excess
[4] = integration greatly enhanced by extended 8 bp pairing

CTCATGCTTTAGCTAGAATCCCCTAGCTTTAGCTATGGGGAGTATGTCAACAAAACTAACGCCTTAAAGCCCCTAGCTTTTAGCTATGGGGTTCGCCCGGAAAACGCCTT / CCGATGATGAGGAACCCCCCCCTCCGGGCGTCGTTACTGATGATGAGGAACCCCCCCCTAGTGATGATGAGGATT [J1 junction ; T1c]
activity on this sequence ([1]; cleavage and strand transfer, 5 mM MgCl2, pH 7.5, 37 C, preferred over Tr and 20-fold scrambled targets): active

CTCATGCTTTAGCTAGAATCCCCTAGCTTTAGCTATGGGGAGTATGTCAACAAAACTAACGCCTTAAAGCCCCTAGCTTTTAGCTATGGGGTTCGCCCGGATGATTCCTT / CCGATGATGAGGAACCCCCCCCTAGGGGCGTCGTTACTGATGATGAGGAACCCCCCCCTAGT [J3 junction ; T3c_2]
activity on this sequence ([1]; 5 nt complementarity, not selected over Tr, outcompeted by T3c_1): less active

CTCATGCTTTAGCTAGAATCCCCTAGCTTTAGCTATGGGGAGTATGTCAACAAAACTAACGCCTTCAAACCCCTAGCTTTTAGCTATGGGGTTCGCCCGGAAAACGCCTT / CCGATGATGAGGAACCCCCCCCTAGAGCTTTTATGATTGATGATGAGGAACCCCCCCCTAGTGATGA [J5 junction ; T5r]
activity on this sequence [1, 3]: not active

CTCATGCTTTAGCTAGAATCCCCTAGCTTTAGCTATGGGGAGTATGTCAACAAAACTAACGCCTTAAAGCCCCTAGCTTTTAGCTATGGGGTTGCCCGAACAAACGCCTT / CCGATGATGAGGAACCCCCCCCGTTCGGGCTGATTACTGATGATGAGGAACCCCCCCCTAGTGATGATGAGGATT [J2 junction ; T2c]
activity on this sequence ([1]; efficient integration into complementary target, 5 mM MgCl2): active

CTCATGCTTTAGCTAGAATCCCCTAGCTTTAGCTATGGGGAGTATGTCAACAAAACTAACGCCTTAAACCCCCTAGCTTTTAGCTATGGGGTTCGCCCGGAAAACGCCTT / CCGATGATGAGGAACCCCCCCCTAGAGCTTTTATTAGTGATGATGAGGAACCCCCCCCTAGTGATGA [J4 junction ; T4r]
activity on this sequence [1, 3]: not active

CTCATGCTTTAGCTAGAATCCCCTAGCTTTAGCTATGGGGAGTATGTCAACAAAACTAACGCCTTAAAGCCCCTAGCTTTTAGCTATGGGGTTCGCCCGGATGATTCCTT / CCGATGATGAGGAACCCAATCATCCGGGCGTCGTTACTGATGATGAGGAACCCCCCCCTAGTGATGATGAGGATT [J3 junction ; T3c_1]
activity on this sequence ([1]; 13 bp complementarity, exclusive integration over T3c_2): active

CTCATGCTTTAGCTAGAATCCCCTAGCTTTAGCTATGGGGAGTATGTCAACAAAACTAACGCCTTAAACCCCCTAGCTTTTAGCTATGGGGTTCGCCCGGAAAACGCCTT / CCGATGATGAGGAACCCCCCCCTCCGGGCGTCGTTAGTGATGATGAGGAACCCCCCCCTAGTGATGATGAGGATT [J4 junction ; T4c]
activity on this sequence [1, 4]: active

AAAGCCCCTAGCTTTTAGCTATGGGGATA / ATTACC [LE29 ; T6']
binding result [2]: binds

CTCATGCTTTAGCTAGAATCCCCTAGCTTTAGCTATGGGGAGTATGTCAACAAAACTAACGCCTTCAAACCCCTAGCTTTTAGCTATGGGGTTCGCCCGGAAAACGCCTT / CCGATGATGAGGAACCCCCCCCTCCGGGCGTCGTGATTGATGATGAGGAACCCCCCCCTAGTGATGATGAGGATT [J5 junction ; T5c]
activity on this sequence [1, 4]: active
